Data source: PubChem BioAssay AID1224828 (NIAID, 2016)
Here is an unselected part of about 17,000 reagents tested. 762 of them (4.5%) were called active. 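Active calls include both raised and lowered p65 entry, mostly lowered; wells with fewer than 50 cells lack a z-score.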 The raw values are shown without normalisation. Unmarked entries are inactive. Reagent sequences are not shown.

Test: 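Knock-downs that increase or decrease LPS-induced p65 nuclear translocation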 (primary screen)
System: mouse RAW264.7 G9 macrophage reporter cells (GFP-p65, Tnf promoter-mCherry)
Knock-down reagent: siRNA pool against mouse genes, 100 nM
Duration: 2 days siRNA transfection, then 40 min LPS before fixation
Conditions: LPS (Salmonella minnesota R595) at 10 ng/ml
Detection: 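Imaged p65 nuclear translocation ratio, normalised to the plate median, converted to robust z-scores and averaged across two replicates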
Reading the numbers: p65 translocation robust z-score: higher = more nuclear NF-kappaB p65 after LPS than the plate median; nuclear/cytoplasmic p65 ratio: higher = more nuclear NF-kappaB p65
Active means: 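Called active when z exceeds 3.3 or falls under -1.56 (median of Tlr4 controls), giving activity score of at least 50; no calls for control wells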
Calls: active = hit (p65 shift raised or lowered); inactive = no clear change

gene | p65 translocation robust z-score | nuclear/cytoplasmic p65 ratio, rep 1 | nuclear/cytoplasmic p65 ratio, rep 2 | low cell count flag
Rps5 | 0.34 | 1.46 | 1.66 | enough cells to score
Il6ra | -0.1 | 1.42 | 1.4 | enough cells to score
Idi2 | – | 1.31 | 1.2 | fewer than 50 cells per well; well left out of scoring
Cdk1 | – | 1.65 | 1.46 | fewer than 50 cells per well; well left out of scoring
Cpne1 | 0.76 | 1.68 | 1.91 | enough cells to score
Rab36 | 0.05 | 1.54 | 1.51 | enough cells to score
Scn9a | – | 1.79 | 1.48 | fewer than 50 cells per well; well left out of scoring
Prkce | – | 1.76 | 1.27 | fewer than 50 cells per well; well left out of scoring
Fgl2 | -0.15 | 1.5 | 1.5 | enough cells to score
Etv5 | -0.7 | 1.41 | 1.25 | enough cells to score
Tomm70a | 0.34 | 1.59 | 2.1 | enough cells to score
Or5t7 | 0.36 | 1.69 | 1.65 | enough cells to score
Cst6 | -1.01 | 1.43 | 1.61 | enough cells to score
Mettl13 | -1.24 | 1.22 | 1.28 | enough cells to score
Ceacam12 | -0.32 | 1.55 | 1.73 | enough cells to score
Or2a52 | 0.35 | 1.49 | 1.31 | enough cells to score
Acss2 | -0.47 | 1.58 | 1.52 | enough cells to score
Sh3rf3 | -0.69 | 1.19 | 1.18 | enough cells to score
Dusp21 | 0.41 | 1.66 | 1.69 | enough cells to score
Sgip1 | -0.52 | 0.961 | 1.2 | enough cells to score
Mgat4e | – | 1.08 | 1.06 | fewer than 50 cells per well; well left out of scoring
Timm44 | -0.73 | 1.21 | 1.17 | enough cells to score
Gpr132 | -1.51 | 1.32 | 1.34 | enough cells to score
Lcorl | 2.04 | 2.13 | 1.89 | enough cells to score
Rnd1 | 0.59 | 1.54 | 1.65 | enough cells to score
Sema5b | 0.24 | 1.44 | 1.28 | enough cells to score
Abcb7 | -0.32 | 1.56 | 1.57 | enough cells to score
Aktip | -0.67 | 1.39 | 1.24 | enough cells to score
Tnni1 | -0.03 | 1.49 | 1.54 | enough cells to score
Or4c108 | 0.7 | 1.77 | 1.68 | enough cells to score
Chlsn | – | 1.23 | 1.57 | fewer than 50 cells per well; well left out of scoring
Srbd1 | 1.33 | 1.86 | 1.83 | enough cells to score
Ccdc198 | -0.04 | 1.39 | 1.43 | enough cells to score
Washc2 | -0.69 | 1.45 | 1.46 | enough cells to score
Drc11 | – | 1.14 | 1.15 | fewer than 50 cells per well; well left out of scoring
Clta | -1.66 (active) | 1.38 | 1.17 | enough cells to score
Ptpn4 | 0.2 | 1.53 | 1.43 | enough cells to score
Nip7 | 1.87 | 1.68 | 1.83 | enough cells to score
Cd81 | – | 1.19 | 1.12 | fewer than 50 cells per well; well left out of scoring
Clic5 | -0.85 | 1.37 | 1.26 | enough cells to score
